# From article PMC9674678
# Results are given in words; binding and its absence hold for the method and conditions named. In cells and extracts the contact can be indirect. Some entries that bind do so weakly or less than the wild type.
# T1: Dpb11-VN (S. cerevisiae) (UniProt P47027)
# T1 sequence: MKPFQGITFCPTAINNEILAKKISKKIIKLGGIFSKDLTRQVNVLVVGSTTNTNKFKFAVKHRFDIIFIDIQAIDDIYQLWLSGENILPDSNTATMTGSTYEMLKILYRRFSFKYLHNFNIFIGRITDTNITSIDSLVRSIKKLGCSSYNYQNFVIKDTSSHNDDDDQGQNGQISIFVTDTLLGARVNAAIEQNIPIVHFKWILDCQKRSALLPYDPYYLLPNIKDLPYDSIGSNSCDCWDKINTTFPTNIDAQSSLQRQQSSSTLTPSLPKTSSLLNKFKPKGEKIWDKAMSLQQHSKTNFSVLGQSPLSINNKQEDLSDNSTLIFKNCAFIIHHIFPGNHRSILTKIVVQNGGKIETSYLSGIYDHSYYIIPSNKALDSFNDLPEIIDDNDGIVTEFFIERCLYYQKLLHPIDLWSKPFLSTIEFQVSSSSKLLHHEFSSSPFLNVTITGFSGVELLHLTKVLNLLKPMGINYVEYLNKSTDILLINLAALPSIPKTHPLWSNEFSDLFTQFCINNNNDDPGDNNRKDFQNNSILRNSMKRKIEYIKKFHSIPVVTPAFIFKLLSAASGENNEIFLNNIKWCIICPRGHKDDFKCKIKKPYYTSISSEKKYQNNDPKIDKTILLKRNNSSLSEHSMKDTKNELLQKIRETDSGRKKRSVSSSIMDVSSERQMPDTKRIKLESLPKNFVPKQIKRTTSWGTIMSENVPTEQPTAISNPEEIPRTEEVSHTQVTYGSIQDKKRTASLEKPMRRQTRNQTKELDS
# Target: T1, Dpb11-VN (S. cerevisiae)
# Assay: split reporter; split-Venus (VN/VC) fluorescence measured by flow cytometry in log-phase yeast cells grown in YPD at 30 °C; background of a strain with untagged SLD2 subtracted; the VN/VC tags stabilize the interaction
row,binding,Binder
1,binds,"VC-Sld2 (protein, UniProt P34252 1-453) MYSFELDKLKIELKTWEHDFIDKNKREPTRDDIKSLRTVRQMYKQYSTLKKKQSLQRQKVDTQESVELPAHKKDHDEVVEIGPTPQVYGKAISIFDMNLSPIKPIYMTFTNNIDVNNDNSKTISNESSPRKTILLKSSPADRTLVAEPISSVKRQLNFQMLNASSTRTPTSSPCKNRNGKLVEIKKCSPTINPPLESGKPSGYYGPNSPLKLDEENIHLNISLNSSTKRRLQIAYPSLQKTPSKDQADISTSFSPSPLIRRPLTKSLIELAREHTEIVKEFGVLQEEDIEEEEEGEEGENGYDEKNHEDDFGLEDELIRPKVVKDIFQEDDDNDDSQAREDTFIRKRPKRRKVIRRLRDNDPETETAGFERDVHKELVKLKRRKVAEFLGSTSQISDTEFEHDPEASSGVVSSEQKPTAKRKGRKKYNLVSNNFRRLKLPKKNRFSNGRWGRR"
2,no binding,"VC-sld2-T84A (protein, UniProt P34252 1-453) MYSFELDKLKIELKTWEHDFIDKNKREPTRDDIKSLRTVRQMYKQYSTLKKKQSLQRQKVDTQESVELPAHKKDHDEVVEIGPAPQVYGKAISIFDMNLSPIKPIYMTFTNNIDVNNDNSKTISNESSPRKTILLKSSPADRTLVAEPISSVKRQLNFQMLNASSTRTPTSSPCKNRNGKLVEIKKCSPTINPPLESGKPSGYYGPNSPLKLDEENIHLNISLNSSTKRRLQIAYPSLQKTPSKDQADISTSFSPSPLIRRPLTKSLIELAREHTEIVKEFGVLQEEDIEEEEEGEEGENGYDEKNHEDDFGLEDELIRPKVVKDIFQEDDDNDDSQAREDTFIRKRPKRRKVIRRLRDNDPETETAGFERDVHKELVKLKRRKVAEFLGSTSQISDTEFEHDPEASSGVVSSEQKPTAKRKGRKKYNLVSNNFRRLKLPKKNRFSNGRWGRR"
3,binds,"Sld2-VC (protein, UniProt P34252 1-453) MYSFELDKLKIELKTWEHDFIDKNKREPTRDDIKSLRTVRQMYKQYSTLKKKQSLQRQKVDTQESVELPAHKKDHDEVVEIGPTPQVYGKAISIFDMNLSPIKPIYMTFTNNIDVNNDNSKTISNESSPRKTILLKSSPADRTLVAEPISSVKRQLNFQMLNASSTRTPTSSPCKNRNGKLVEIKKCSPTINPPLESGKPSGYYGPNSPLKLDEENIHLNISLNSSTKRRLQIAYPSLQKTPSKDQADISTSFSPSPLIRRPLTKSLIELAREHTEIVKEFGVLQEEDIEEEEEGEEGENGYDEKNHEDDFGLEDELIRPKVVKDIFQEDDDNDDSQAREDTFIRKRPKRRKVIRRLRDNDPETETAGFERDVHKELVKLKRRKVAEFLGSTSQISDTEFEHDPEASSGVVSSEQKPTAKRKGRKKYNLVSNNFRRLKLPKKNRFSNGRWGRR"
